# Some of the results follow. Single values are uncertain here, since repeats match poorly.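 U2OS cells carrying ACE2 were mixed with U2OS cells carrying full-length spike, and fusion was scored by imaging as the share of nuclei showing both cell types' fluorescent markers. A compound counts as an inhibitory hit when it is non-toxic and its fusion z-score falls below -3, meaning more than three standard deviations below the plate's DMSO wells.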
# Test system: U2OS ACE2 x SARS-CoV-2 spike co-culture
# Assay: cell-cell fusion (fraction fused) z-score vs plate DMSO control; higher = more fusion
# Conditions: 30 µM; 5 h; toxicity class: non-toxic, passed QC
row,SMILES,cell-cell fusion (z-score)
1,COC(=O)/C=C/C(C)=C/C=C/C(C)=C/C=C/C=C(C)/C=C/C=C(C)/C=C/C(=O)O,inactive: 2.04
2,NC(=O)c1noc([C@H](CCCC2CCCCC2)CC(=O)NO)n1,inactive: 2.37
3,O=C(Cc1ccccc1)NO,inactive: 2.86
4,Cc1cc(=O)[nH]c(=S)[nH]1,inactive: 0.0667
5,CC1=NN(c2ccccc2)C(=O)C1 [Edaravone],inactive: 0.365
6,CC1=NN(c2ccccc2)C(=O)C1,inactive: 3.1
7,Cl.N=C(N)NC(=N)N1CCOCC1,inactive: 2.03
8,Cl.N[C@@H](CCC(=O)O)C(=O)O [L-Glutamic acid hydrochloride],inactive: 0.596
9,C[C@]12CC[C@H](O)CC1=CC[C@@H]1[C@@H]2CC[C@]2(C)C(c3cccnc3)=CC[C@@H]12 [Abiraterone],inactive: 2.34
10,CC[C@@]1(O)C(=O)OCc2c1cc1n(c2=O)Cc2cc3c(CN(C)C)c(O)ccc3nc2-1.Cl,inactive: 3.58
11,CN1CCCCC1CCN1c2ccccc2Sc2ccc(S(C)=O)cc21.O=S(=O)(O)c1ccccc1 (stereo not drawn),inactive: 2.59
12,CC(C)[N+]1(C)[C@@H]2CC[C@H]1C[C@@H](OC(=O)C(CO)c1ccccc1)C2.O.[Br-] (stereo partly drawn) [Ipratropium bromide monohydrate],inactive: 1.32
13,Cl.NC1=NCC2c3ccccc3Cc3ccccc3N12 (stereo not drawn) [Epinastine HCl],inactive: 2.61
14,COc1cc(Cc2cnc(N)nc2N)cc(OC)c1OC [Trimethoprim],inactive: 0.473
15,CC(=O)Nc1nnc(S(N)(=O)=O)s1 [Acetazolamide],inactive: 2.07
16,CN(C)c1ccccc1CN1CCCN(Cc2ccccc2N(C)C)C1c1ccncc1,inactive: 1.88
17,Cn1cnc([N+](=O)[O-])c1Sc1[nH]cnc2ncnc1-2,inactive: 0.856
18,COc1cc(OC)c2c(=O)c(OC)c(-c3ccccc3)oc2c1,inactive: 1.06
19,CC1(C)C(=O)C=C[C@@]2(C)C1=C(O)C(=O)[C@]1(C)C2CC[C@@]2(C)[C@H](c3ccoc3)C[C@H]3O[C@]321 (stereo partly drawn),inactive: 0.898
20,O=C1NC(=O)/C(=C/c2ccc3c(c2)OC(F)(F)O3)S1,inactive: 0.0313
21,CC(=O)OCC(=O)[C@@]1(O)CCC2C3CCC4=CC(=O)CC[C@]4(C)[C@@]3(F)[C@@H](O)C[C@@]21C (stereo partly drawn),inactive: 0.101
22,COc1cc(C(=O)NC(=S)Nc2cccc(NC(=O)c3ccccc3)c2)cc(OC)c1OC,inactive: 1.66
23,O=c1c(O)c(-c2ccc(O)c(O)c2)oc2cc(O)cc(O)c12,inactive: 1.73
24,Cc1cn([C@H]2C[C@H](N=[N+]=[N-])[C@@H](CO)O2)c(=O)[nH]c1=O [Zidovudine],inactive: 2.69

row,SMILES,cell-cell fusion (z-score)
1,CC(=O)N[C@@H]1[C@@H](C(O)[C@H](O)CO)O[C@](O)(C(=O)O)C[C@@H]1O (stereo partly drawn),inactive: 1.92
2,CN(C)CCc1c[nH]c2ccc(CS(=O)(=O)N3CCCC3)cc12,inactive: 0.082
3,CCCn1c(=O)c2[nH]c(C3CCCC3)nc2n(CCCOC(=O)c2ccc(S(=O)(=O)F)cc2)c1=O,inactive: 1.86
4,O.O=CN(O)CCCP(=O)(O)O.[Na] [Fosmidomycin sodium salt hydrate],inactive: 2.73
5,Cl.NC(N)=NC(=O)Cc1c(Cl)cccc1Cl,inactive: 2.13
6,CCc1cc2c(cc1N1CCC(N3CCOCC3)CC1)C(C)(C)c1[nH]c3cc(C#N)ccc3c1C2=O,inactive: 0.044
7,CN(C)CCC=C1c2ccccc2CCc2ccccc21.Cl,inactive: 0.116
8,CN(C)CCC=C1c2ccccc2CCc2ccccc21.Cl [Amitriptyline hydrochloride],inactive: 1.86
9,COC(=O)[C@@H]1OC(=O)C2OC23[C@@]1(C)CCC1[C@]2(C)C(C[C@@H](O)[C@]13C)C(C)(C)[C@H](OC(C)=O)C[C@@H]2OC(C)=O (stereo partly drawn),inactive: 1.91
10,COc1cc(Nc2ncc3c(n2)-c2ccc(Cl)cc2C(c2c(F)cccc2OC)=NC3)ccc1C(=O)O [MLN8237 (Alisertib)],inactive: 2.29
11,COc1cc(Nc2ncc3c(n2)-c2ccc(Cl)cc2C(c2c(F)cccc2OC)=NC3)ccc1C(=O)O [Alisertib (MLN8237)],inactive: 0.41
12,C[C@]12C=CC(=O)C=C1CC[C@@H]1[C@@H]2C(=O)C[C@@]2(C)[C@H]1CC[C@]2(O)C(=O)CO [Prednisone],inactive: 2
13,O=[N+]([O-])c1cc([As](=O)(O)O)ccc1O,inactive: 2.2
14,Cc1nccnc1N1CCCCC1.O=S(=O)(O)O,inactive: 2.22
15,COc1cc(OC)c2c(=O)c(-c3ccc4c(c3)OCO4)coc2c1,inactive: 2.31
16,N#CC(C#N)=Cc1ccc(O)c(O)c1 [Tyrphostin 23],inactive: 1.47
17,CCNC(=O)CCC/C=C\C[C@@H]1[C@@H](/C=C/[C@@H](O)CCc2ccccc2)[C@H](O)C[C@@H]1O [Bimatoprost],inactive: 2.03
18,CCN(CC)CCNC(=O)COc1ccc(OC)cc1.Cl,inactive: 1.76
19,COC1(C)CCC2OC2(C)CCC2C1CC2(C)C (stereo not drawn),inactive: 2.11
20,CCCN1CCC[C@@H](c2cccc(O)c2)C1.Cl [S(-)-3PPP hydrochloride],inactive: 1.59
21,COC(=O)C(c1ccccc1Cl)N1CCc2sccc2C1.O=S(=O)(O)O (racemic) [(±) Clopidogrel hydrogen sulfate],inactive: 3.39
22,Cc1cccc(N(C)C(=S)Oc2ccc3ccccc3c2)c1,inactive: 1.26
23,CC1=CCC[C@@H]2C1(C)CCC(C)[C@@]2(C)CC/C(C)=C/Cn1c[n+](C)c2c(N)ncnc21.[Cl-] (stereo partly drawn),inactive: 0.83
24,O=C(NOC[C@H](O)CO)c1ccc(F)c(F)c1Nc1ccc(I)cc1F,inactive: 1.08
